For two substances, binding results are on record in PMC4742980.

Amino acid sequences for entries named in this document (tags omitted). A change or cut given only in a name is not applied to a line headed by its entry.
UniProt P11387: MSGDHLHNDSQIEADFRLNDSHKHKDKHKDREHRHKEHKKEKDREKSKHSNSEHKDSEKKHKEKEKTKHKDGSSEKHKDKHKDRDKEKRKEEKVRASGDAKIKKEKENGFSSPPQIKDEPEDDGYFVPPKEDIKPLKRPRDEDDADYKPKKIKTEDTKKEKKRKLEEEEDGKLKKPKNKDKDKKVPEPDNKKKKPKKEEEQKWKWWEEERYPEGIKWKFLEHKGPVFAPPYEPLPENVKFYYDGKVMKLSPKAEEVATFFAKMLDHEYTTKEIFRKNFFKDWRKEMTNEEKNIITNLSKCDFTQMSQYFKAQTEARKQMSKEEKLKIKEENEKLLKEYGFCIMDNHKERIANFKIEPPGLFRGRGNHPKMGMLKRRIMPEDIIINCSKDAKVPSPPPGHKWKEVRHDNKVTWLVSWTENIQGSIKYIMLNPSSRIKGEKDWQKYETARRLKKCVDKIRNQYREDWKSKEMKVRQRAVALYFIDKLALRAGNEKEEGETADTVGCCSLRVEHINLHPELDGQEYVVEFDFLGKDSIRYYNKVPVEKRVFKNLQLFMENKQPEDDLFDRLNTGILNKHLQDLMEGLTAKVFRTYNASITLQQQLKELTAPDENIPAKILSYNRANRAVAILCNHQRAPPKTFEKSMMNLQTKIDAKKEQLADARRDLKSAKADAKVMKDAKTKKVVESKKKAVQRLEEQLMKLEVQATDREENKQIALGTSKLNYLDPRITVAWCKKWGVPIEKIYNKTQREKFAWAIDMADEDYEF
UniProt Q08943: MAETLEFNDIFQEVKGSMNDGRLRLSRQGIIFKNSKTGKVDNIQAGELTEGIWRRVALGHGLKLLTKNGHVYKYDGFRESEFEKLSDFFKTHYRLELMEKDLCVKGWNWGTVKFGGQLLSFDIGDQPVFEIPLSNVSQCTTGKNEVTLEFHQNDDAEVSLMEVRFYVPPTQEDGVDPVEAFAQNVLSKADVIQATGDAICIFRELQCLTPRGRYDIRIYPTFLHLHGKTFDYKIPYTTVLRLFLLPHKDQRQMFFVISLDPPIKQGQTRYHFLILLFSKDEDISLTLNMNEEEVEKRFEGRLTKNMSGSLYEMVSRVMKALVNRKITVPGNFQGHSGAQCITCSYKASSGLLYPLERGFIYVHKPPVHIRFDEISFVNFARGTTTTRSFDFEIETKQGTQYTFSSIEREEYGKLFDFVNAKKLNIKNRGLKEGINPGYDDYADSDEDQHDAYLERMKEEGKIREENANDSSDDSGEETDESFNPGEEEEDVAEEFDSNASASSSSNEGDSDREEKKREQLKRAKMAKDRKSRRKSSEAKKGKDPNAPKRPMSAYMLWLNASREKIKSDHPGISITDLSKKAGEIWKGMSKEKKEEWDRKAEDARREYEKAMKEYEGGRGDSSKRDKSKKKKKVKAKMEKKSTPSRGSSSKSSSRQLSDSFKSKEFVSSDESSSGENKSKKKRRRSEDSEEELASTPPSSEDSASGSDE
UniProt Q3TKT4: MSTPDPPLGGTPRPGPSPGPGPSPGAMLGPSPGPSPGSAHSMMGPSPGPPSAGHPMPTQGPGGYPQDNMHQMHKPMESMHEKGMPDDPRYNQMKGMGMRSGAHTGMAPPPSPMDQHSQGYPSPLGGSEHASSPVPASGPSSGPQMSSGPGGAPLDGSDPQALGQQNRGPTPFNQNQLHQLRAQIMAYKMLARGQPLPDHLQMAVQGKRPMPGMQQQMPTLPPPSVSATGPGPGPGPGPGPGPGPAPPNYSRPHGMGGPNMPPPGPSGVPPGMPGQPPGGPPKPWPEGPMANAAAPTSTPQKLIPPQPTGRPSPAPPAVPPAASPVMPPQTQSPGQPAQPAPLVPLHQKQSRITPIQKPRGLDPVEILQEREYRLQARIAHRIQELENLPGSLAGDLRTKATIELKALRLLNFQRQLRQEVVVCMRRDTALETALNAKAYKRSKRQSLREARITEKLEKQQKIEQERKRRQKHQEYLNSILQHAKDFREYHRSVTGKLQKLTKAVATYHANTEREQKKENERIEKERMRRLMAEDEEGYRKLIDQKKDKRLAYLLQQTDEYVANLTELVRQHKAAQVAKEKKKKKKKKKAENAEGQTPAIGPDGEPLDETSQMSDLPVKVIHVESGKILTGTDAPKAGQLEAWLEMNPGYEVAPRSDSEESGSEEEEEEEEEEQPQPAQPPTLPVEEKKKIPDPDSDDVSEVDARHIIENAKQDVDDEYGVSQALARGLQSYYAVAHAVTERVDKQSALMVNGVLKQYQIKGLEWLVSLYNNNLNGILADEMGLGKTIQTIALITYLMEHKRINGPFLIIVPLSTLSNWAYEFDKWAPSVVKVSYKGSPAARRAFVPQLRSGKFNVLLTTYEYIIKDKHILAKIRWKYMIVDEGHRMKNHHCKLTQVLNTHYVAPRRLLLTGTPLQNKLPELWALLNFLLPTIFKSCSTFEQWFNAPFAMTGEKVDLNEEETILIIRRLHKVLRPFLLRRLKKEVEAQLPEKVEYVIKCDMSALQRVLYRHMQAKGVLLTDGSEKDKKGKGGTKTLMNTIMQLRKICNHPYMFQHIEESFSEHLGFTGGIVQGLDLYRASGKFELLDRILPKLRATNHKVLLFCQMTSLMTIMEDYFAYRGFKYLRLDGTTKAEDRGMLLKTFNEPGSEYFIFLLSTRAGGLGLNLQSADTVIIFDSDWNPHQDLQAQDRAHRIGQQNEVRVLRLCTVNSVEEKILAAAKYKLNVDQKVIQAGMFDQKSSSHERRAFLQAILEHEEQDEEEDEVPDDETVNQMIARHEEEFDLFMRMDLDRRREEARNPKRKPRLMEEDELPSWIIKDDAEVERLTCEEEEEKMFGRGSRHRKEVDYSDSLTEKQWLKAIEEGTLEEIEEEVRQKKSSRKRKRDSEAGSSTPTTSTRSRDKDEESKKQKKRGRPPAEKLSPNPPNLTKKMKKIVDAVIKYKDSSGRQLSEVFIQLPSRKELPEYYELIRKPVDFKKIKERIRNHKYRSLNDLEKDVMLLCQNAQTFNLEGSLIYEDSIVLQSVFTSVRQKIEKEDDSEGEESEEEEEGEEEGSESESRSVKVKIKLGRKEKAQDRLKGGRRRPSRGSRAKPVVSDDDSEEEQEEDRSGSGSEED

Results are given in words; binding and its absence hold for the method and conditions named. In cells and extracts the contact can be indirect. Some binding calls cover weakened binding; strength is not graded here.

This assay concerns the target GFP-tagged human TOP1 (GFP-TOP1) (human) (UniProt P11387). The assay can be described thus: co-IP; native-IP of GFP-TOP1 or GFP with GFP-Trap_A from nuclei of P388/CPT45 transfectants, western blot; also after control, SSRP1 or SMARCA4 siRNA. For orientation: Immunoblotting shows a protein as a band on a membrane.

As to “FACT (heterodimeric complex composed of SSRP1 and SPT16/SUPT16H), endogenous, mouse (from UniProt Q08943 1-708; Q920B9 1-1047)”, the binding entry is reported as “binds”.

Take “SMARCA4 (endogenous, mouse) (from UniProt Q3TKT4 1-1613)”: the binding result was “binds”.
